Test results reported in patent US20180194851A1 (Pfizer, published 2018).
These are yes or no findings as the source states them, for the method shown. Values belong to the binder of their own block, whether it stands above or below them.

Target: rat 4-1BB on PHA stimulated PBMC (rat)
Assay: flow cytometry, Alexa Fluor 647 conjugated antibody at 100 nM on PHA stimulated and unstimulated rat PBMC

B1: MOR-7480 (IgG1) (antibody, V domains shown)
VH: QVQLVQSGAEVKKPGESLKISCKGSGYSFSTYWISWVRQMPGKGLEWMGKIYPGDSYTNYSPSFQGQVTISADKSISTAYLQWSSLKASDTAMYYCARGYGIFDYWGQGTLVTVSS
VL: DIELTQPPSVSVAPGQTARISCSGDNIGDQYAHWYQQKPGQAPVVVIYQDKNRPSGIPERFSGSNSGNTATLTISGTQAEDEADYYCATYTGFGSLAVFGGGTKLTVL
notes: Human IgG1 format, lambda light chain
- binding: no binding (tested: 100 nM)

B3: MOR-7480 (IgG2) (antibody, V domains shown)
VH: QVQLVQSGAEVKKPGESLKISCKGSGYSFSTYWISWVRQMPGKGLEWMGKIYPGDSYTNYSPSFQGQVTISADKSISTAYLQWSSLKASDTAMYYCARGYGIFDYWGQGTLVTVSS
VL: DIELTQPPSVSVAPGQTARISCSGDNIGDQYAHWYQQKPGQAPVVVIYQDKNRPSGIPERFSGSNSGNTATLTISGTQAEDEADYYCATYTGFGSLAVFGGGTKLTVLG
- binding: no binding (tested: 100 nM)

More lines, now with the values ahead:

- binding: no binding (tested: 100 nM)
B2: MOR-7483 (IgG1) (antibody, V domains shown)
VH: QVQLVQSGAEVKKPGESLKISCKGSGYSFSTYWISWVRQMPGKGLEWMGKIYPGDSYTNYSPSFQGQVTISADKSISTAYLQWSSLKASDTAMYYCARGYGIFDYWGQGTLVTVSS
VL: DIELTQPPSVSVAPGQTARISCSGDNIGDQYAHWYQQKPGQAPVVVIYQDKNRPSGIPERFSGSNSGNTATLTISGTQAEDEADYYCSTYTFVGFTTVFGGGTKLTVL
notes: Human IgG1 format, lambda light chain; also called 7483_G1

- binding: no binding (tested: 100 nM)
B4: MOR-7483 (IgG2) (antibody, V domains shown)
VH: QVQLVQSGAEVKKPGESLKISCKGSGYSFSTYWISWVRQMPGKGLEWMGKIYPGDSYTNYSPSFQGQVTISADKSISTAYLQWSSLKASDTAMYYCARGYGIFDYWGQGTLVTVSS
VL: DIELTQPPSVSVAPGQTARISCSGDNIGDQYAHWYQQKPGQAPVVVIYQDKNRPSGIPERFSGSNSGNTATLTISGTQAEDEADYYCSTYTFVGFTTVFGGGTKLTVLG
notes: also called 7483_G2
